Patent publication US20250325793A1, “INTRACALVARIOSSEOUS DRUG ADMINISTRATION DEVICE FOR DELIVERING DRUG BY BYPASSING BLOOD-BRAIN BARRIER” (GACHON UNIVERSITY OF INDUSTRY-ACADEMIC COOPERATION …, priority 2023, published 2025)

Details: rat, in vivo

In the case of `COc1cc2c(cc1OC)C(=O)C(CC1CCN(Cc3ccccc3)CC1)C2` (centres unmarked) [DPZ, donepezil], the “AUCISF of the ICO administration group compared with the IV administration group” value is reported as “relatively higher” and the “AUCplasma of the ICO administration group compared with the IV administration group” value is reported as “relatively lower”.
